Values from PubChem BioAssay AID504764 (Drosophila RNAi Screening Center, 2011)
The screen tested about 22,000 reagents; this is a random part of those that have a named target and a result. In the full data, 403 (1.9%) were called active. 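Unnormalised raw counts per well; ratio z-scores behind the hit calls and whether each hit raises or lowers signal are not deposited.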 Names joined by + are all predicted targets of the reagent. No sequences are given here. The record does not give: the amount of reagent.

Purpose: 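Genes whose knock-down alters Notch-dependent transcription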 (primary screen)
Cells: Drosophila Kc167 cells
Knock-down reagent: long dsRNA against Drosophila genes
Duration: about 5 days (4 days dsRNA, then 24 h after transfection)
Treatment: transfection of constitutively active membrane-tethered Notch lacking the extracellular domain, read 24 h later
Measurement: 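Firefly luciferase from an E(spl)m3 reporter with active Notch, plus control-promoter and uninduced reporter wells for normalisation; unnormalised counts, duplicate wells a and b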
Scale: induced reporter light, run 1, well a and induced reporter light, run 1, well b: higher = more light from the Notch target reporter with active Notch; control promoter light, run 1, well a and control promoter light, run 1, well b: higher = more light from the viral control promoter (cell number, transfection, viability); uninduced reporter light, run 1, well a: higher = more light from the Notch target reporter without active Notch
Rule for the call: 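Hit if the duplicate-averaged log2 ratio of induced to control-promoter light gives a plate-wise z beyond ±2, or induced to uninduced beyond ±1.8; weak-control or discordant-duplicate wells dropped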
Meaning of the calls: active = modifier hit (raised or lowered Notch signal); inactive = not a hit

gene knocked down	dsRNA	induced reporter light, run 1, well a	induced reporter light, run 1, well b	control promoter light, run 1, well a	control promoter light, run 1, well b	uninduced reporter light, run 1, well a	outcome
CG15472	DRSC18055	1.59e5	1.59e5	2.85e5	3.18e5	11245	inactive
DIP-gamma	DRSC14873	1.94e5	2.10e5	2.76e5	2.62e5	14455	inactive
Hug	DRSC16969	81395	84310	88255	61405	6690	inactive
CG8539	DRSC10988	1.28e5	1.34e5	70200	31760	8475	active
Ubc10	DRSC07568	46080	32610	35930	54170	3350	inactive
Dph3	DRSC14923	87020	83690	86565	58755	2970	inactive
CG32762	DRSC18298	1.50e5	1.55e5	2.29e5	2.59e5	11840	inactive
RhoGAP18B	DRSC19763	71090	1.13e5	92975	1.13e5	9705	inactive
RhoGAP18B	DRSC20047	81445	72635	1.02e5	1.24e5	10035	inactive
RhoGAP18B	DRSC20048	28670	34665	16395	25795	8950	inactive
RhoGAP18B	DRSC20049	34715	48135	35150	61180	7380	inactive
spz	DRSC17065	1.75e5	1.67e5	2.24e5	2.38e5	14335	inactive
CG3500	DRSC04379	1.36e5	1.42e5	1.56e5	1.46e5	10885	inactive
Jon99Ciii	DRSC16859	1.28e5	99680	1.58e5	1.44e5	8540	inactive
CG31248	DRSC22722						inactive
CG17163	DRSC20901	79270	91585	94505	1.01e5	9870	inactive
CG15533	DRSC15069	1.26e5	1.13e5	1.73e5	1.70e5	12335	inactive
Wnt6	DRSC02795	2.39e5	2.03e5	2.28e5	2.44e5	11255	inactive
CG14247	DRSC14742	1.06e5	1.03e5	1.70e5	1.46e5	12220	inactive
mino	DRSC14132	35615	47495	49485	51145	3185	inactive
ms(3)K81	DRSC14746	1.64e5	1.08e5	2.00e5	1.97e5	11320	inactive
CG7309	DRSC03045	1.18e5	1.48e5	68060	1.12e5	16690	inactive
CG14635	DRSC17945	1.35e5	1.14e5	2.60e5	2.05e5	8135	inactive
CG1360	DRSC06406	1.66e5	1.61e5	1.96e5	1.94e5	16675	inactive
AANATL3	DRSC02089	46280	40785	51260	65165	2800	inactive
Tsp42Eb + CG30160	DRSC04961	69710	1.02e5	1.28e5	1.37e5	4215	inactive
Tsp42Eb + CG30160	DRSC06791	1.87e5	2.20e5	2.03e5	1.98e5	15490	inactive
CG15547	DRSC15085	1.40e5	1.12e5	1.64e5	1.49e5	10632	inactive
Use1	DRSC10180	1.84e5	2.24e5	2.04e5	1.91e5	11390	inactive
Prosap	DRSC06382	71535	74060	81575	97160	6465	inactive
Prosap	DRSC07081	1.19e5	1.25e5	1.25e5	1.18e5	9810	inactive
Or65c	DRSC21312						inactive
CG3702	DRSC00628	74555	82315	51860	66590	4840	active
Or59a	DRSC04631	53110	43240	31835	34955	3680	inactive
Tcs6 + PIG-P	DRSC13742	1.64e5	1.69e5	1.87e5	2.04e5	14315	inactive
Tcs6 + PIG-P	DRSC14893	1.53e5	1.39e5	1.71e5	1.89e5	11225	inactive
RabX5	DRSC08608	98430	1.06e5	1.31e5	1.69e5	5665	inactive
CG34183	DRSC01099	1.75e5	1.57e5	2.30e5	1.89e5	11475	inactive
CG32188	DRSC09510	1.91e5	1.81e5	2.25e5	2.66e5	20930	inactive
CG10081	DRSC05962	26530	29040	40495	43590	2790	inactive
CG3216	DRSC04347	34135	29250	25635	23075	2340	inactive
gl	DRSC16957	1.68e5	1.32e5	1.81e5	1.86e5	12125	inactive
CG31675	DRSC01825	70590	67620	56945	72465	7560	inactive
CG7544	DRSC07023	2.16e5	2.13e5	3.33e5	3.22e5	14780	inactive
Usp16-45	DRSC18352	2.07e5	1.67e5	2.49e5	2.48e5	16970	inactive
AlkB	DRSC19115	92740	84470	82215	88870	7315	inactive
CG5478	DRSC15814	2.17e5	2.49e5	2.10e5	2.15e5	17875	inactive
TRAM	DRSC18178	1.08e5	96545	1.95e5	1.85e5	7960	inactive
TRAM	DRSC18651	1.31e5	1.35e5	2.26e5	2.42e5	8992	inactive
CG11317	DRSC14299	1.41e5	1.35e5	1.98e5	2.24e5	10575	inactive
CG32669	DRSC18864	81410	70555	78485	61685	5670	inactive
Mef2	DRSC07468	1.39e5	1.16e5	80170	78580	11750	inactive
Piezo	DRSC03092	82415	80550	77380	70235	6300	inactive
CG18537	DRSC06764	45590	35775	51715	36735	3625	inactive
mRpL39	DRSC10255	1.64e5	1.59e5	2.28e5	2.25e5	6335	inactive
cype	DRSC02356	1.66e5	1.58e5	1.84e5	1.48e5	10200	inactive
LManII	DRSC01986	2.71e5	2.71e5	1.90e5	1.99e5	17690	inactive
Pdk	DRSC07504	1.63e5	1.74e5	1.67e5	1.58e5	14505	inactive
Arp3	DRSC09669	80115	83770	66545	30880	7045	inactive
CG4375	DRSC00653	1.24e5	99785	97155	76360	8050	inactive
AdamTS-B	DRSC18346	1.50e5	1.48e5	3.24e5	3.13e5	12115	inactive
CG32182	DRSC09508	1.69e5	1.84e5	2.87e5	2.59e5	19825	inactive
krimp	DRSC06578	1.04e5	1.12e5	1.83e5	2.23e5	8975	inactive
CG13196	DRSC06321	1.31e5	1.14e5	1.39e5	1.39e5	10710	inactive
